Values quoted from earlier work, collected in patent US20130281399A1, “TREATMENT OF DISEASES BY EPIGENETIC REGULATION” (RVX Therapeutics Inc., priority 2012, published 2013).

Details: Nicodeme et al. (2010); cited from earlier work

In the case of CCNC(=O)C[C@@H]1N=C(c2ccc(Cl)cc2)c2cc(OC)ccc2-n2c(C)nnc21 [I-BET], the “protection against lipopolysaccharide-induced endotoxic shock and bacteria-induced sepsis” value is given as “confer protection”.
